The text below walks through data of article doi:10.1101/2024.04.15.589676.

Experiment [1] addresses SARS-CoV-2 NSP3 (Gluc2-tagged) (SARS-CoV-2) (UniProt P0DTD1). Briefly: split reporter.
Experiment [2] concerns the target SARS-CoV-2 nonstructural protein 6 (Gluc2-tagged) (SARS-CoV-2) (UniProt P0DTD1). Briefly: split reporter.

No constants are given. Whether binding was seen depends on the method and setting. In cells and extracts the contact can be indirect. Some entries that bind do so weakly or less than the wild type. Sequences can lack the tags named with a protein.

B1: Gluc1-PIP4K2C (enzyme, UniProt Q8TBX8 1-421)
chain: MASSSVPPATVSAATAGPGPGFGFASKTKKKHFVQQKVKVFRAADPLVGVFLWGVAHSINELSQVPPPVMLLPDDFKASSKIKVNNHLFHRENLPSHFKFKEYCPQVFRNLRDRFGIDDQDYLVSLTRNPPSESEGSDGRFLISYDRTLVIKEVSSEDIADMHSNLSNYHQYIVKCHGNTLLPQFLGMYRVSVDNEDSYMLVMRNMFSHRLPVHRKYDLKGSLVSREASDKEKVKELPTLKDMDFLNKNQKVYIGEEEKKIFLEKLKRDVEFLVQLKIMDYSLLLGIHDIIRGSEPEEEAPVREDESEVDGDCSLTGPPALVGSYGTSPEGIGGYIHSHRPLGPGEFESFIDVYAIRSAEGAPQKEVYFMGLIDILTQYDAKKKAAHAAKTVKHGAGAEISTVHPEQYAKRFLDFITNIFA
In the case of B1, the binding entry in experiment [1] and in experiment [2] was “binds” in each case.
